The values below come from article PMC10218830.

Chains of the proteins cited; added tags and fusions are not shown.
UniProt Q96LA8: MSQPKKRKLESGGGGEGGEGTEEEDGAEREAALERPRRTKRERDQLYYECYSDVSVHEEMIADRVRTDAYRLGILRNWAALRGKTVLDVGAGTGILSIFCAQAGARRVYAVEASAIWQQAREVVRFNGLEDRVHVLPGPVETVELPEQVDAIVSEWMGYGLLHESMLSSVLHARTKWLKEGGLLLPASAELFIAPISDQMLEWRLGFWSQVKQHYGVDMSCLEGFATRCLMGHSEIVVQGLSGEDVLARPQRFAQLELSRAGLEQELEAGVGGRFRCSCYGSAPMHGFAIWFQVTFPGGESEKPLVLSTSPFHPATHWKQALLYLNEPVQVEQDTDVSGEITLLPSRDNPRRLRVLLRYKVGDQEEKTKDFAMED
UniProt Q99873: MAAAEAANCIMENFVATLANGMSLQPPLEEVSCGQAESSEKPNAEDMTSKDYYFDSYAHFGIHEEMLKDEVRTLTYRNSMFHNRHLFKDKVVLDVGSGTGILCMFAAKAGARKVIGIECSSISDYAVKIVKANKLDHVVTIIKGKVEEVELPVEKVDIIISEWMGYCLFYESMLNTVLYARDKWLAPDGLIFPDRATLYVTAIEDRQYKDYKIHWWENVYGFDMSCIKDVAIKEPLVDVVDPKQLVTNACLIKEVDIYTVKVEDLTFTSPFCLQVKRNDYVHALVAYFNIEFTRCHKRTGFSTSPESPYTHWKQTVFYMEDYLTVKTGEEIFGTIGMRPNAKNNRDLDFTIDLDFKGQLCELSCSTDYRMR
UniProt O60678: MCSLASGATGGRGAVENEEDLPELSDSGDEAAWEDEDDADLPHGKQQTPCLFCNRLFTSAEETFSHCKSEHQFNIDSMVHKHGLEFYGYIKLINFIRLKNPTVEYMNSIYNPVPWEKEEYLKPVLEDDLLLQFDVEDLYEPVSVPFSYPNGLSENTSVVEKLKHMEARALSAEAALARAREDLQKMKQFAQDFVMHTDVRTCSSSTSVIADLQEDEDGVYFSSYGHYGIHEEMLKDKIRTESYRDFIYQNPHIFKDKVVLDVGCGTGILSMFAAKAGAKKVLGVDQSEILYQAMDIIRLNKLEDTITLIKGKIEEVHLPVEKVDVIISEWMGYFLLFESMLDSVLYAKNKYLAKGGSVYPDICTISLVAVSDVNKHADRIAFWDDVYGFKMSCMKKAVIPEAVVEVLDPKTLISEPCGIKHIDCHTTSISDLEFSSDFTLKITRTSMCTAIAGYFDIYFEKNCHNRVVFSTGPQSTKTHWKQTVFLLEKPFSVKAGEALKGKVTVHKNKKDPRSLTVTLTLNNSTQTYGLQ
UniProt Q9UBS0: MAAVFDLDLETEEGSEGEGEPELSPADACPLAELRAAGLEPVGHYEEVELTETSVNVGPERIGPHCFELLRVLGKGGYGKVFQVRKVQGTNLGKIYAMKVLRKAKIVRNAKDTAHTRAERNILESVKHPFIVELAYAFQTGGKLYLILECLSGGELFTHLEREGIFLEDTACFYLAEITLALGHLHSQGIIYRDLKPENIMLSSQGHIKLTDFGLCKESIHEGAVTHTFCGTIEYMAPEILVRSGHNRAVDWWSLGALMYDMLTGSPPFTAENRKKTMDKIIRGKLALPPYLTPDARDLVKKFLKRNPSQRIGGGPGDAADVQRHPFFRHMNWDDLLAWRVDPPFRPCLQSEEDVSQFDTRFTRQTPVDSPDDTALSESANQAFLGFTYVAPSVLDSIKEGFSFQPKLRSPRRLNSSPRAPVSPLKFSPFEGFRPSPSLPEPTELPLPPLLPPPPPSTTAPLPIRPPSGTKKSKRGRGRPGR

No constants are given. Whether binding was seen depends on the method and setting. For some of these results: In cells and extracts the contact can be indirect. Some results given as binding are weak or reduced against the parent protein; the word gives no strength.

In one test the target is Myc-tagged PRMT6 (UniProt Q96LA8). In words: co-IP; HEK293 cells expressing Myc-PRMT6 and EE-S6K2, treated 30 min with 100 nM Rapamycin, 50 uM LY294002 or DMSO; lysates immunoprecipitated with anti-Myc-tag (or anti-EE-tag) antibody; immune complexes read by in vitro kinase assay on 80S ribosomes (rpS6) with [gamma-32P]ATP.
In another test the target is GST-PRMT1 (UniProt Q99873). In words: pull-down; GST-PRMTs or GST alone on Glutathione-Sepharose 4B beads incubated with recombinant His-S6K2 in 20 mM Tris-HCl pH 7.5, 150 mM NaCl, 1% Triton, 1% BSA, 0.5% NP-40, 3 h at 4 C; with or without 200 uM AdoMet; immunoblot with anti-S6K2 antibody; both purified. Background: In western blotting, separated proteins are transferred to a membrane and probed.

A further test deals with GST-PRMT3 (UniProt O60678). The description is as above.
The target in a further test is GST-PRMT6 (UniProt Q96LA8). The description is as above.
Test [1] has as its target EE-tagged p54-S6K2 (human) (UniProt Q9UBS0). The experiment in a line: co-IP; HEK293 cells expressing Myc-PRMT6 and EE-S6K2, serum-free media for 24 h then 10% FBS for the indicated times (30 min to 6 h); lysates immunoprecipitated with anti-EE-tag antibody, immunoblotting.
Test [2] has as its target Ribosomal S6 kinase 2 (S6K2), endogenous (human (endogenous in HEK293)) (UniProt Q9UBS0). In words: co-IP; endogenous S6K2 immunoprecipitated from HEK293 lysate, interacting proteins detected by immunoblotting; Protein A-Sepharose beads alone as control.

Take “EE-tagged p54-S6K2 (from UniProt Q9UBS0 1-482) (enzyme)”: the binding entry with Myc-tagged PRMT6 is recorded as “binds”. Consider “His-S6K2 (from UniProt Q9UBS0 1-482) (enzyme)”, for which the binding entry in the test with GST-PRMT1, with GST-PRMT3 and with GST-PRMT6 was “binds” throughout.

Take “Myc-tagged PRMT6 (from UniProt Q96LA8 1-375) (enzyme)”: the binding entry in test [1] is reported as “binds”. Turning to “PRMT1, endogenous (from UniProt Q99873 1-371) (enzyme)”, the binding entry in test [2] is listed as “binds”. On the same count and under the same terms, as for “PRMT6, endogenous (from UniProt Q96LA8 1-375) (enzyme)”, the entry is “binds”.
